Patent EP1844781A1 (priority 2006, dated 2007)
For at least one compound, name, drawing or mass did not settle the structure.

Test system: uterine strips
Format: cell-based, Wistar rats
Details: nifedipine 1 µM; n=12 strips from 3 rats

COC(=O)C1=C(C)NC(C)=C(C(=O)OC)C1c1ccccc1[N+](=O)[O-] [nifedipine]
effect on rhythmic contractions induced by the four Na+ channel agonists: inhibited
